Source: paper PMC9444072
These are yes or no findings as the source states them, for the method shown. Some entries that bind do so weakly or less than the wild type.

Amino acid sequences for entries named in this document (tags omitted).
UniProt Q12791: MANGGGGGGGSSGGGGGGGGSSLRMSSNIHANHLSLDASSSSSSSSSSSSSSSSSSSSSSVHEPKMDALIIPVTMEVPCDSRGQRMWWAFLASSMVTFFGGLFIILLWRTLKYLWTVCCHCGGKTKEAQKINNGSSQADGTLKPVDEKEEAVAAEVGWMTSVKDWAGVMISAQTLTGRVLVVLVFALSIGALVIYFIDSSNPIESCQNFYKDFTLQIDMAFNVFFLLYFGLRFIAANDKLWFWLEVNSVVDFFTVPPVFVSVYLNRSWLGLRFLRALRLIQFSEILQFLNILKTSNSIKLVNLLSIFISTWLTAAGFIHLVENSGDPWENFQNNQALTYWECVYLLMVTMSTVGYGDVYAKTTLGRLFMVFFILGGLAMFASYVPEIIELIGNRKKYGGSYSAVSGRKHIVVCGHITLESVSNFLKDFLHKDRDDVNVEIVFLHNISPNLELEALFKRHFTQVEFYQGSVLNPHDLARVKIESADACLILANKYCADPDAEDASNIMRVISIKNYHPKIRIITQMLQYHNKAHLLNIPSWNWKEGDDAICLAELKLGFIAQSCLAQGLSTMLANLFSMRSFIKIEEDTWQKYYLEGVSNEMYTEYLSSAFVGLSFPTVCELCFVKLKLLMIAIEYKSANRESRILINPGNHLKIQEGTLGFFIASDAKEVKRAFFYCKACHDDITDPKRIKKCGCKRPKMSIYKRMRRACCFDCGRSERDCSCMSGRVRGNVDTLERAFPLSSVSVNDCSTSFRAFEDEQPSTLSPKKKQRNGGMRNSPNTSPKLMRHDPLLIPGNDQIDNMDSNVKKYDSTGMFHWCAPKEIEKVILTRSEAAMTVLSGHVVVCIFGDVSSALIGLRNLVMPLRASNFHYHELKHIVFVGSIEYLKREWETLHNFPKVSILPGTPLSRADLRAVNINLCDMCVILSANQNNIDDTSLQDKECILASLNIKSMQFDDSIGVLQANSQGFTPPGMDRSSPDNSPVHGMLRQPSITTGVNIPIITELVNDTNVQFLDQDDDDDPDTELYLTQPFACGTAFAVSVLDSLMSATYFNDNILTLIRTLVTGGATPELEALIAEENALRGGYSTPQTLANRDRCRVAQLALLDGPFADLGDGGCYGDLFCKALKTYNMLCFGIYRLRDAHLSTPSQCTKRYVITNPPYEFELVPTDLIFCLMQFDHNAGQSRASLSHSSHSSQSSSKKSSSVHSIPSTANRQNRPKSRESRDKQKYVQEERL

Molecular target: BK channel α subunit (hSloα1, human slow poke alpha subunit K+ channel) (human) (UniProt Q12791)
Assay: native gel or EMSA; native SMA-PAGE (4-16% Tris/glycine gradient gel, 150 V, 1 h, room temperature) of Ni-NTA purified SMALPs from HEK293 membranes, followed by western blot with anti-hsloα, anti-hsloβ or anti-his antibodies; subunits co-expressed in cells and extracted together

binding: binds
B1: BK channel β1 subunit (hSloβ1, human slow poke regulatory beta one subunit) (protein, UniProt Q16558 1-191)
chain: MVKKLVMAQKRGETRALCLGVTMVVCAVITYYILVTTVLPLYQKSVWTQESKCHLIETNIRDQEELKGKKVPQYPCLWVNVSAAGRWAVLYHTEDTRDQNQQCSYIPGSVDNYQTARADVEKVRAKFQEQQVFYCFSAPRGNETSVLFQRLYGPQALLFSLFWPTFLLTGGLLIIAMVKSNQYLSILAAQK
